The results in this text go back to PMC4363142.

Assay [1] addresses T1, LRGUK-1 wild type (leucine-rich repeats and guanylate kinase-domain containing isoform 1), full length, in pDEST32 (mouse) (UniProt Q9D5S7).
T1 sequence: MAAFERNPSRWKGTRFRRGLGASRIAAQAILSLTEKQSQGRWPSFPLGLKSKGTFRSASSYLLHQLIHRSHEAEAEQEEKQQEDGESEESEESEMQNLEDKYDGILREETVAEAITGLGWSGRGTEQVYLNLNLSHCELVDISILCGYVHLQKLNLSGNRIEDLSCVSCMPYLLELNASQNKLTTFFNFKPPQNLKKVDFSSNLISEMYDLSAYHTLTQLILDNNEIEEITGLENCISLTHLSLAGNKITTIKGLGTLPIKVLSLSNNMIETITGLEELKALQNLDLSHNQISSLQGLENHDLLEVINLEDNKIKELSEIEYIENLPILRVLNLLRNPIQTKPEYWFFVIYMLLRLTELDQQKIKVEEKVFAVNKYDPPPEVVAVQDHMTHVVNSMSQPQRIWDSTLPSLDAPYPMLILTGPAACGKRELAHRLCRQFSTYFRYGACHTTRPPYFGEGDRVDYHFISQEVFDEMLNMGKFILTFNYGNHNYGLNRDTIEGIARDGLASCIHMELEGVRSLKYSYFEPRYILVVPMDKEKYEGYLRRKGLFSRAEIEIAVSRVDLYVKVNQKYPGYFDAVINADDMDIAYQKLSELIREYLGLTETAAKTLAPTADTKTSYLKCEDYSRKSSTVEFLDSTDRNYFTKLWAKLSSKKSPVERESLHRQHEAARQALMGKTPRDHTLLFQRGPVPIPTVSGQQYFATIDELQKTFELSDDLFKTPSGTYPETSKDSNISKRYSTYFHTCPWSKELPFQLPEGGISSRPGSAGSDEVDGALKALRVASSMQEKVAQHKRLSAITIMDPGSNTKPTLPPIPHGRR
Kind of assay: two-hybrid; library screen: LRGUK^WT-pDEST32 as bait, adult mouse testis cDNA library in pDEST22 as prey, co-transformed into Mav203 yeast (ProQuest Two-Hybrid System).

The target of assay [2] is T2, LRGUK^Kaos (LRGUK-1 R528Stop), in pDEST32 (mouse) (UniProt Q9D5S7).
T2 sequence: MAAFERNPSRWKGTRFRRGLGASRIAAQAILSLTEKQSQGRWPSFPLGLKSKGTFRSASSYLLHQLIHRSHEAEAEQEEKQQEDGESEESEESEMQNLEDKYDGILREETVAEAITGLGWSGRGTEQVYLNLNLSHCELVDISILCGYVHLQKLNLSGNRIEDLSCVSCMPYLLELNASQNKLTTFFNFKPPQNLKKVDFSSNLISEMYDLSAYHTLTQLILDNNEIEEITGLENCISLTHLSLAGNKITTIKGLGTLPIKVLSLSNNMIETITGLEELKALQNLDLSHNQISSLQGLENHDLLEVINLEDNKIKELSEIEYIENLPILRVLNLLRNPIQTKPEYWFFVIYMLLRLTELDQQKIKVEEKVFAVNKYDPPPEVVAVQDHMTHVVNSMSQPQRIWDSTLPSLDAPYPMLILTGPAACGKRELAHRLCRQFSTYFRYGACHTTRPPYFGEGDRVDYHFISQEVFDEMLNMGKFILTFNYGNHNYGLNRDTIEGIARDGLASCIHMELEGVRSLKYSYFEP
Kind of assay: two-hybrid; directed test: HOOK2-pDEST22 prey co-transformed into Mav203 yeast with LRGUK^WT-pDEST32, LRGUK^Kaos-pDEST32 or empty pDEST32, growth on selection media.

The target of assay [3] is T1, LRGUK-1 wild type (leucine-rich repeats and guanylate kinase-domain containing isoform 1), full length, in pDEST32 (mouse). The assay is described as above.
The target in assay [4] is T3, EGFP-tagged LRGUK-1 (full length mouse Lrguk-1 in pEGFP-C1) (mouse) (UniProt Q9D5S7).
T3 sequence: T1 sequence
The experiment in a line: co-IP; EGFP-tagged LRGUK-1 expressed in HEK293 cells, precipitated with anti-GFP-Trap-A beads; blot for endogenous HOOK2.

No constants are given. Whether binding was seen depends on the method and setting. For some of these results: In cells and extracts the contact can be indirect. Some results given as binding are weak or reduced against the parent protein; the word gives no strength. For some of these results: Tags and fused reporters may be left off the sequences shown.

B1: HOOK2 C-terminal amino acids 369-716 (longest HOOK2 clone of the testis cDNA library), in pDEST22 (domain or fragment, UniProt Q7TMK6 369-716)
chain: VQELQGQWQEEAMKAEKWLFECRNLEEKCDLVTKEKERLLTERDSLREANEELRCAQLQPRGLAQADLSLDPTPSGLENLAAEILPAELRETLVRLQLENKRLCQQEAADRERQEELQRHLEEANRARHGLEAQQRLNQQQLSELRAQVEELQKALQEQGGKTEDPTLLKRKLEDHLQKLHEADLELQRKREYIEELEPPTDSSTARRIEELQDSLQKKDADLRAMEERYRRYVDKARTVIQTLEPKQRPPTVVSPEFHTLRSQLWERNLRIRQMEMDYEKSRRRQEQEEKLLISAWYSMGMALEHRAGEEHAPAHAQSFLAQQRLATNARRGPLGRQALSLRPTDKH
B1: the results for the binding result in assay [1], in assay [2] and in assay [3] were “binds”, “no binding” and “binds”, respectively.

B2: endogenous HOOK2 of HEK293 cells (protein, UniProt Q96ED9 1-719)
chain: MSVDKAELCGSLLTWLQTFHVPSPCASPQDLSSGLAVAYVLNQIDPSWFNEAWLQGISEDPGPNWKLKVSNLKMVLRSLVEYSQDVLAHPVSEEHLPDVSLIGEFSDPAELGKLLQLVLGCAISCEKKQDHIQRIMTLEESVQHVVMEAIQELMTKDTPDSLSPETYGNFDSQSRRYYFLSEEAEEGDELQQRCLDLERQLMLLSEEKQSLAQENAGLRERMGRPEGEGTPGLTAKKLLLLQSQLEQLQEENFRLESGREDERLRCAELEREVAELQHRNQALTSLAQEAQALKDEMDELRQSSERAGQLEATLTSCRRRLGELRELRRQVRQLEERNAGHAERTRQLEDELRRAGSLRAQLEAQRRQVQELQGQRQEEAMKAEKWLFECRNLEEKYESVTKEKERLLAERDSLREANEELRCAQLQPRGLTQADPSLDPTSTPVDNLAAEILPAELRETLLRLQLENKRLCRQEAADRERQEELQRHLEDANRARHGLETQHRLNQQQLSELRAQVEDLQKALQEQGGKTEDAISILLKRKLEEHLQKLHEADLELQRKREYIEELEPPTDSSTARRIEELQHNLQKKDADLRAMEERYRRYVDKARMVMQTMEPKQRPAAGAPPELHSLRTQLRERDVRIRHLEMDFEKSRSQREQEEKLLISAWYNMGMALQQRAGEERAPAHAQSFLAQQRLATNSRRGPLGRLASLNLRPTDKH
As for B2, the binding result in assay [4] is on record as “binds”.
